For test [1], the target named is N-cat (mouse CNPase residues 138-378) (mouse) (UniProt P16330). As to the kind of experiment: SEC; size exclusion chromatography of the samples used for SAXS; single symmetric peaks; both purified. Background: Size exclusion chromatography separates by hydrodynamic size, large species first.
The target of test [2] is cat-C (mouse CNPase residues 159-400) (mouse) (UniProt P16330). The test is described as above.
The target of test [3] is mouse CNPase catalytic domain (residues 159-378) (mouse) (UniProt P16330). The test is described as above.
For test [4] the target is unchanged. As to the kind of experiment: SAXS; synchrotron small-angle X-ray scattering in solution; Bis-Tris pH 5.5 buffers, 100-300 mM NaCl, with and without 50 mM sodium citrate; both purified.
In test [5] the target is N-cat-C (mouse CNPase residues 138-400) (mouse) (UniProt P16330). As to the kind of experiment: SEC; size exclusion chromatography of the samples used for SAXS; single symmetric peaks; both purified.

These are yes or no findings as the source states them, for the method shown.

B1: N-cat (mouse CNPase residues 138-378) (domain or fragment, UniProt P16330-2 138-378)
chain: AQLKEKNQWQLSADDLKKLKPGLEKDFLPLYFGWFLTKKSSETLRKAGQVFLEELGNHKAFKKELRHFISGDEPKEKLELVSYFGKRPPGVLHCTTKFCDYGKAAGAEEYAQQEVVKRSYGKAFKLSISALFVTPKTAGAQVVLTDQELQLWPSDLDKPSASEGLPPGSRAHVTLGCAADVQPVQTGLDLLDILQQVKGGSQGEAVGELPRGKLYSLGKGRWMLSLTKKMEVKAIFTGYYG
For the molecule B1, the binding entry in test [1] was “no binding”.

B2: cat-C (mouse CNPase residues 159-400) (domain or fragment, UniProt P16330-2 159-400)
chain: GLEKDFLPLYFGWFLTKKSSETLRKAGQVFLEELGNHKAFKKELRHFISGDEPKEKLELVSYFGKRPPGVLHCTTKFCDYGKAAGAEEYAQQEVVKRSYGKAFKLSISALFVTPKTAGAQVVLTDQELQLWPSDLDKPSASEGLPPGSRAHVTLGCAADVQPVQTGLDLLDILQQVKGGSQGEAVGELPRGKLYSLGKGRWMLSLTKKMEVKAIFTGYYGKGKPVPIHGSRKGGAMQICTII
As for B2, the binding entry in test [2] is given as “no binding”.

B3: mouse CNPase catalytic domain (residues 159-378) (domain or fragment, UniProt P16330-2 159-378)
chain: GLEKDFLPLYFGWFLTKKSSETLRKAGQVFLEELGNHKAFKKELRHFISGDEPKEKLELVSYFGKRPPGVLHCTTKFCDYGKAAGAEEYAQQEVVKRSYGKAFKLSISALFVTPKTAGAQVVLTDQELQLWPSDLDKPSASEGLPPGSRAHVTLGCAADVQPVQTGLDLLDILQQVKGGSQGEAVGELPRGKLYSLGKGRWMLSLTKKMEVKAIFTGYYG
As for B3, the results for the binding entry in test [3] and in test [4] were “no binding” and “no binding (tested: 5–15 mg/ml; 1–10 mg/ml; 3–15 mg/ml)”, respectively.

B4: N-cat-C (mouse CNPase residues 138-400) (domain or fragment, UniProt P16330-2 138-400)
chain: AQLKEKNQWQLSADDLKKLKPGLEKDFLPLYFGWFLTKKSSETLRKAGQVFLEELGNHKAFKKELRHFISGDEPKEKLELVSYFGKRPPGVLHCTTKFCDYGKAAGAEEYAQQEVVKRSYGKAFKLSISALFVTPKTAGAQVVLTDQELQLWPSDLDKPSASEGLPPGSRAHVTLGCAADVQPVQTGLDLLDILQQVKGGSQGEAVGELPRGKLYSLGKGRWMLSLTKKMEVKAIFTGYYGKGKPVPIHGSRKGGAMQICTII
For the molecule B4, in test [5], the binding result is recorded as “no binding”.

Source of the values: publication PMC3290555.
